Experimental data as given in publication PMC7806742.
Results are given in words; binding and its absence hold for the method and conditions named. In cells and extracts the contact can be indirect. Some results given as binding are weak or reduced against the parent protein; the word gives no strength. Sequences can lack the tags named with a protein. Blank lines part the entries; values can stand above or below the molecule they belong to.

Protein sequences, listed by entry. Tags and fused reporters are not part of them.
UniProt Q61312: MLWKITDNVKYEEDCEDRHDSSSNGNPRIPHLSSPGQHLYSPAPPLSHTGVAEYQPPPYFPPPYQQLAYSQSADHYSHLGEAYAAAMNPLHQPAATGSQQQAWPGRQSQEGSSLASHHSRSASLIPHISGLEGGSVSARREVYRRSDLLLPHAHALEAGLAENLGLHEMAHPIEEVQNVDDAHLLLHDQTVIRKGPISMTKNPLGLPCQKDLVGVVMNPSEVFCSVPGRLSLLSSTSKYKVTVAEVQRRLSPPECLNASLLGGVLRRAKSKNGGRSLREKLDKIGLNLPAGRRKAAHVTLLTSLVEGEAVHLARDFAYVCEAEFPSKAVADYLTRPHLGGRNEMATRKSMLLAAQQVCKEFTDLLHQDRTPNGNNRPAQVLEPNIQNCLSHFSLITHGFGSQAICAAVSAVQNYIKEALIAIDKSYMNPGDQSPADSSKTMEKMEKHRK

Experiments:
[1] = molecular target: T1, Histone demethylase JMJD2B/KDM4B (mouse (endogenous in TSC)) (UniProt Q91VY5); assay: co-IP; IP with anti-JMJD2B antibody on Dynabeads Protein A/G from 1 mg DNase-treated TSC lysate (50 mM Tris-HCl pH 7.4, 150 mM NaCl, 1 mM EDTA, 1% NP-40), 4 °C overnight; Western blot with anti-LSD1, anti-TFAP2C or anti-EOMES; wild-type, Cas9 control and CRISPR Jmjd2b knockdown TSCs
T1 sequence: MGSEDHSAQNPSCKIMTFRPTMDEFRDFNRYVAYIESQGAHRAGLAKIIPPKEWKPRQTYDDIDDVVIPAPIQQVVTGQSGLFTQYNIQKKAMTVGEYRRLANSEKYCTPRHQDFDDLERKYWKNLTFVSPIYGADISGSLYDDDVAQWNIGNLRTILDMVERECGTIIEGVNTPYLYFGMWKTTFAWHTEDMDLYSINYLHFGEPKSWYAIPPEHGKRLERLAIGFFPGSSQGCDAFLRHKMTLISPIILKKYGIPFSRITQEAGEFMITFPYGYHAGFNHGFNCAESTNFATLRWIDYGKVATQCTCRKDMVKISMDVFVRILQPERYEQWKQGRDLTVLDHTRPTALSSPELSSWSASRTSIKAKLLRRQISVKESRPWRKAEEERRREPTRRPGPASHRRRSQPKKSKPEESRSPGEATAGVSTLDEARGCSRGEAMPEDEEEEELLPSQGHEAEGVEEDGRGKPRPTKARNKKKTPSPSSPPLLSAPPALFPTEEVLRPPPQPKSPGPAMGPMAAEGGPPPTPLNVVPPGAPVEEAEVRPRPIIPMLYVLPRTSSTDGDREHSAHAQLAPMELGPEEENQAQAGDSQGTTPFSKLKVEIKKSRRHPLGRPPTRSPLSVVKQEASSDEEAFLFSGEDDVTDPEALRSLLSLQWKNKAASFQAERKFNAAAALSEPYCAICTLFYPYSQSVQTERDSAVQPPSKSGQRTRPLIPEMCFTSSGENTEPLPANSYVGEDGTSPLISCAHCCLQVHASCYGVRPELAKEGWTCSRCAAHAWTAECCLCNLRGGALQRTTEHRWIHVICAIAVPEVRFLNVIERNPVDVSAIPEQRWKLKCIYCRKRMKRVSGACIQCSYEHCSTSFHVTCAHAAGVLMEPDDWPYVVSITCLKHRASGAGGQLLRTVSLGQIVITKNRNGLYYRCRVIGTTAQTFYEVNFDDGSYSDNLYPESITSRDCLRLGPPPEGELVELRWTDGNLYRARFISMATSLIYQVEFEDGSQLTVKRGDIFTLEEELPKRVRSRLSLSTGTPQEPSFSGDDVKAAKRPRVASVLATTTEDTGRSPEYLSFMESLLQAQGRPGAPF

[2] = molecular target: AP-2 family transcription factor TFAP2C (mouse (endogenous in TSC)) (UniProt Q61312); assay: co-IP; IP with anti-TFAP2C or anti-LSD1 antibody on Dynabeads Protein A/G from 1 mg DNase-treated TSC lysate (50 mM Tris-HCl pH 7.4, 150 mM NaCl, 1 mM EDTA, 1% NP-40), 4 °C overnight; Western blot for JMJD2B

binding [1]: binds
Molecule: AP-2 family transcription factor TFAP2C (from UniProt Q61312 1-449)

binding [2]: binds
B1: Histone demethylase JMJD2B/KDM4B (protein, UniProt Q91VY5 1-1086)
chain: T1 sequence

binding [1]: no binding
B2: EOMES (protein, UniProt O54839 1-707)
chain: MQLGEQLLVSSVNLPGAHFYSLESARGGGGGGGGGGGGGGGSVSLLPGAAPSPQRLDLDKASKKFPGSLPCQAGSAEPAGAGAGAPAAMLSDADAGDTFGSTSAVAKPGPPDGRKGSPCAEEELPSAATAAATARYSMDSLSSERYYLPSPGPQGSELAAPCSLFQYPAAAGAAHGPVYPASNGARYPYGSMLPPGGFPAAVCPPARAQFGPAAGSGSGAGSSGGGAGGPGAYPYGQGSPLYGPYAGTSAAGSCGGLGGLGVPGSGFRAHVYLCNRPLWLKFHRHQTEMIITKQGRRMFPFLSFNINGLNPTAHYNVFVEVVLADPNHWRFQGGKWVTCGKADNNMQGNKMYVHPESPNTGSHWMRQEISFGKLKLTNNKGANNNNTQMIVLQSLHKYQPRLHIVEVTEDGVEDLNEPSKTQTFTFSETQFIAVTAYQNTDITQLKIDHNPFAKGFRDNYDSMYTASENDRLTPSPTDSPRSHQIVPGGRYGVQNFFPEPFVNTLPQARYYNGERTVPQTNGLLSPQQSEEVANPPQRWLVTPVQQPVTNKLDIGSYESEYTSSTLLPYGIKSLPLQTSHALGYYPDPTFPAMAGWGGRGAYQRKMAAGLPWTSRMSPPVFPEDQLAKEKVKEEISSSWIETPPSIKSLDSSDSGVYNSACKRKRLSPSTPSNGNSPPIKCEDINTEEYSKDTSKGMGAYYAFYTSP
